According to PubChem BioAssay AID2517 (National Center for Advancing Translational Sciences (NCATS), 2010):
Screen size: about 350,000 compounds; about 1,200 (0.34%) were called active. The inconclusive results got no clear call from the source; some entries with a clear call stand among them for comparison. Calls come from the whole dose curve; as a rule, active = well fitted inhibition curve with a large enough effect; inconclusive = small, poorly fitted or top-dose-only effect; inactive = no such curve, though single readings can be large or run the other way. Where the call is inconclusive, the potency comes from a doubtful curve fit.

Chains of the proteins cited; added tags and fusions are not shown.
UniProt P27695, whole entry, looked up: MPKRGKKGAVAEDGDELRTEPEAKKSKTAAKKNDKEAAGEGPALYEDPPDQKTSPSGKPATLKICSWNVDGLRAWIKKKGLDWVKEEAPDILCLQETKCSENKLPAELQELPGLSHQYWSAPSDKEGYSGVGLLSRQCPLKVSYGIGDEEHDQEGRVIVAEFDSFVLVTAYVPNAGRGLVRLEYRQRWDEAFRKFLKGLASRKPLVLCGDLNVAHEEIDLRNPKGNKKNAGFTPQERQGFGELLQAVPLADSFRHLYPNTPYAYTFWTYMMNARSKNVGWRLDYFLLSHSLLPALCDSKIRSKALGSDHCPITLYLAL

The compounds below were run against DNA repair nuclease/redox regulator APEX1 (Homo sapiens) (UniProt P27695) (assay: qHTS Assay for Inhibitors of the Human Apurinic/apyrimidinic Endonuclease 1 (APE1)). Conditions: recombinant APE1, TAMRA/BHQ-2 abasic DNA cleavage fluorescence; series mostly up to 65.8 µM.
How it was run: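 Compound pre-exposure to 0.75 nM APE1, 15 min at ambient temperature. Reaction initiated with 50 nM TAMRA/BHQ-2 THF substrate, read immediately in kinetic mode, 525 nm excitation, 598 nm emission.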
Note: nearly all actives have a fitted effect of over 55% in size.
Potency is the fitted concentration of half-maximal effect.

Structure (SMILES) | Potency
CC(/C=C/c1ccc(Cl)o1)=C\C(=O)O | inconclusive: 35.5 µM [inhibitor, single point]
O=C(N/N=C/c1cc(Br)c(Br)o1)c1ccc2c(c1)OCCO2 | active: 31.6 µM
Cc1ccc(N=Nc2c(=O)[nH]n3c(=O)cc(C)[nH]c23)cc1 | inactive
Cc1nn(C)c(Cl)c1NC(=O)OCc1ccccc1 | inconclusive: 31.6 µM [inhibitor, partial curve, poor fit]
O=C(NCc1ccccc1)OCCN1CCN(Cc2ccccc2)CCC1=O | inconclusive: 3.55 µM [inhibitor, partial curve]
O=C(CCS(=O)(=O)c1ccccc1)Nc1ccc2c(c1)OCO2 | inconclusive: 25.1 µM [inhibitor, single point]
O=C(Nc1ccc(S(=O)(=O)Nc2nccs2)cc1)c1cc(-c2ccncc2)nc2ccccc12 | inconclusive: 17.8 µM [inhibitor, partial curve]
COC(=O)c1ccc(NC(=O)C(=O)N2CCN(C(=S)Nc3ccc(OC)cc3)CC2)cc1 | inconclusive: 39.8 µM [inhibitor, single point]
CC(=O)Nc1cc(NC(C)=O)cc(C(=O)N2CCCC3CCCCC32)c1 (stereo not given) | active: 16.8 µM
Cc1cc(NC(=O)COC(=O)COc2cccc3c2OC(C)(C)C3)no1 | inconclusive: 2.82 µM [inhibitor, full curve, poor fit]
CCOC(=O)C1=C(C)Nc2ccccc2N/C1=N\S(=O)(=O)c1cc(C(=O)O)ccc1Cl | inactive
CC1=CC2=NC(=O)/C(=C\c3cc(C)n(-c4ccc(F)cc4)c3C)C(=N)N2O1 | inactive
O=C(NCc1nc2ccccc2[nH]1)C1=C[C@@H](c2ccc(Br)cc2)C[C@@H](OCc2ccc(CO)cc2)O1 | inconclusive: 3.98 µM [inhibitor, single point]
Cc1[nH][nH]c(=O)c1C=NCc1cccs1 | inconclusive: 316 µM [inhibitor, partial curve, poor fit]
Cc1[nH]c(C)c(S(=O)(=O)NCc2ccccc2Cl)c1C(=O)N1CCCC1 | inactive
Cc1cc(C(=O)C(C)Cl)c(C)n1Cc1ccco1 (stereo not given) | inconclusive: 10 µM [inhibitor, partial curve]
C/C(CCN1CCCc2nc(C)c(C)cc21)=N\O[C@@H](C)CN1CCCc2nc(C)c(C)cc21 | inconclusive: 0.0016 µM [inhibitor, full curve, poor fit]
COc1ccc(-n2nc([N+](=O)[O-])c(=NCc3ccco3)n2O)cc1 | inconclusive: 25.1 µM [inhibitor, single point]
COc1cccc(CNC(=O)Cn2ncc3c(=O)oc4ccccc4c32)c1 | inconclusive: 44.7 µM [inhibitor, single point]
CCOC(=O)c1sc(Nc2nc3cc4c(cc3s2)OCO4)cc1C | inconclusive: 10 µM [inhibitor, single point]
C#CCOCCOCCOCCNc1nc(N2CCN(C(=O)[C@H](C(C)C)n3cc(CCO)nn3)CC2)nc(N2CCN(C(=O)[C@H]([C@@H](C)CC)n3cc(CCCCN)nn3)CC2)n1 | inconclusive: 7.94 µM [inhibitor, single point]
NC(=O)c1cnccn1 | inconclusive: 35.5 µM [inhibitor, single point]

Structure (SMILES) | Potency
NC(C(=O)O)c1cc(O)c(Cl)c(O)c1 (stereo not given) | inconclusive: 31.6 µM [inhibitor, partial curve]
C=C1c2ccccc2O[C@H](C(=O)OCC)[C@@H]1CC(C)(C)c1ccccc1 | inconclusive: 56.2 µM [inhibitor, single point]
O=c1c(-c2ccccc2)coc2cc(O)cc(O)c12 | inconclusive: 31.6 µM [inhibitor, single point]
O=[N+]([O-])c1cc(/C=N/Nc2nc(N3CCCCC3)nc(N3CCCCC3)n2)ccc1O | inconclusive: 0.631 µM [inhibitor, full curve, poor fit]
Cc1cc(=O)oc(C)c1C(=O)Nc1cnc2ccccc2c1 | inconclusive: 11.2 µM [inhibitor, partial curve, poor fit]
O=C(CCCN1C(=O)/C(=C/c2cccs2)SC1=S)Nc1cccc(C(=O)O)c1 | inconclusive: 35.5 µM [inhibitor, single point]
CCCOC(=O)C1C2C=CC(C2)C1C(=O)OCC(=O)c1ccccc1 (stereo not given) | inconclusive: 2.51 µM [inhibitor, partial curve]
CCc1cccc2c(C(=O)CSc3nncn3-c3ccccc3OC)c[nH]c12 | inactive
COc1ccc(CC(=O)OCn2nnc3ccccc3c2=O)cc1OC | inconclusive: 56.2 µM [inhibitor, partial curve, poor fit]
CCC(=O)Nc1ccc(C(=O)Nc2ccc(Br)cc2F)cc1 | inconclusive: 28.2 µM [inhibitor, single point]
C=CCn1c(SCC(=O)NCc2ccco2)nc2ccccc2c1=O | inactive
CCN(CC)CCn1c2ccccc2c2cnc(N)c(C#N)c21 | inactive
COc1cc(CNCc2ccccc2)ccc1OCC(O)c1ccccc1 (stereo not given) | inactive
COc1ccccc1CN1C(=O)c2ccncc2C1=O | inactive
CCCCCCC(=O)Nc1nc(C)c(-c2csc(Nc3cc(Cl)ccc3C)n2)s1 | inconclusive: 31.6 µM [inhibitor, single point]
CCCn1c(N2CCN(C)CC2)nc2c1c(=O)[nH]c(=O)n2C | inconclusive: 3.55 µM [inhibitor, single point]
Cc1cc2[nH]c(=O)c(=O)[nH]c2cc1S(=O)(=O)N1CCN(c2cccc(Cl)c2)CC1 | inactive
COC(=O)c1ccc(NC(=O)CSc2nc(N)c(NC(=O)c3ccc(Br)o3)c(=O)[nH]2)cc1 | inconclusive: 23.8 µM [inhibitor, single point]
COc1ccc(-n2c(=O)c3c4c(sc3n(CC(N)=O)c2=O)CCCCC4)cc1 | inconclusive: 35.5 µM [inhibitor, single point]
CN1CCN(c2nc3c(c(=O)[nH]c(=O)n3C)n2CC(N)=O)CC1 | inconclusive: 44.7 µM [inhibitor, single point]
C=CCn1c(COc2ccccc2)nnc1SCc1ccc(C#N)cc1 | inconclusive: 44.7 µM [inhibitor, single point]
CC(=O)Nc1ccccc1OCc1nnc(-c2ccccc2Cl)o1 | inconclusive: 33.6 µM [inhibitor, single point]

As a short view, 14 of the compounds above:
Structure (SMILES) | Potency
Cc1cc(NC(=O)COC(=O)COc2cccc3c2OC(C)(C)C3)no1 | inconclusive: 2.82 µM [inhibitor, full curve, poor fit]
CCOC(=O)C1=C(C)Nc2ccccc2N/C1=N\S(=O)(=O)c1cc(C(=O)O)ccc1Cl | inactive
CC1=CC2=NC(=O)/C(=C\c3cc(C)n(-c4ccc(F)cc4)c3C)C(=N)N2O1 | inactive
O=C(NCc1nc2ccccc2[nH]1)C1=C[C@@H](c2ccc(Br)cc2)C[C@@H](OCc2ccc(CO)cc2)O1 | inconclusive: 3.98 µM [inhibitor, single point]
Cc1[nH][nH]c(=O)c1C=NCc1cccs1 | inconclusive: 316 µM [inhibitor, partial curve, poor fit]
Cc1[nH]c(C)c(S(=O)(=O)NCc2ccccc2Cl)c1C(=O)N1CCCC1 | inactive
Cc1cc(C(=O)C(C)Cl)c(C)n1Cc1ccco1 (stereo not given) | inconclusive: 10 µM [inhibitor, partial curve]
C/C(CCN1CCCc2nc(C)c(C)cc21)=N\O[C@@H](C)CN1CCCc2nc(C)c(C)cc21 | inconclusive: 0.0016 µM [inhibitor, full curve, poor fit]
COc1ccc(-n2nc([N+](=O)[O-])c(=NCc3ccco3)n2O)cc1 | inconclusive: 25.1 µM [inhibitor, single point]
COc1cccc(CNC(=O)Cn2ncc3c(=O)oc4ccccc4c32)c1 | inconclusive: 44.7 µM [inhibitor, single point]
CCOC(=O)c1sc(Nc2nc3cc4c(cc3s2)OCO4)cc1C | inconclusive: 10 µM [inhibitor, single point]
C#CCOCCOCCOCCNc1nc(N2CCN(C(=O)[C@H](C(C)C)n3cc(CCO)nn3)CC2)nc(N2CCN(C(=O)[C@H]([C@@H](C)CC)n3cc(CCCCN)nn3)CC2)n1 | inconclusive: 7.94 µM [inhibitor, single point]
NC(=O)c1cnccn1 | inconclusive: 35.5 µM [inhibitor, single point]
NC(C(=O)O)c1cc(O)c(Cl)c(O)c1 (stereo not given) | inconclusive: 31.6 µM [inhibitor, partial curve]

Further structures follow:

Structure (SMILES) | Potency
Cc1ccc(-c2csc(NC(=O)C3CC=CCC3C(=O)O)c2C(=O)OC(C)C)cc1 (stereo not given) | inconclusive: 14.1 µM [inhibitor, partial curve, poor fit]
COc1cc(/C=N/n2cc(-c3ccccc3)[nH]c2=S)cc(OC)c1O | inconclusive: 5.01 µM [inhibitor, single point]
COc1cccc(OC)c1C(=O)Nc1cc(C)nn1-c1nc2ccccc2[nH]1 | inconclusive: 4.47 µM [inhibitor, partial curve]
Cc1ccc2nc(NNC(=O)c3ccc4c(c3)OCCO4)sc2c1 | inconclusive: 2.82 µM [inhibitor, partial curve]
O=C1N/C(=C/c2cccn2-c2ccccc2)C(=O)N1c1cccc(Cl)c1 | inactive
O=C(CCCN1C(=O)c2ccccc2C1=O)Nc1c2c(nc3c1CCC3)CCC2 | inactive
CCOc1cc(NC(=O)c2cnccn2)c(OCC)cc1NC(=O)c1ccc(OC)cc1 | inconclusive: 44.7 µM [inhibitor, single point]
O=C(NCCc1ccc(F)cc1)C(=O)NCC1CCCN1S(=O)(=O)c1ccccc1 (stereo not given) | inactive
OCCN1CCN(CCOc2ccccc2-c2ccccc2)CC1 | inconclusive: 1.12 µM [inhibitor, full curve, poor fit]
Cc1cccc2cc(C3CC(c4ccco4)=NN3S(=O)(=O)c3ccccc3)c(Cl)nc12 (stereo not given) | inconclusive: 0.224 µM [inhibitor, full curve, poor fit]
COc1ccc2c(=O)c3c(=O)n(Cc4ccco4)c(-c4ccco4)nc3oc2c1 | inconclusive: 35.5 µM [inhibitor, single point]
NC(N)=NC(=S)Nc1ccc(Cl)cc1 | inconclusive: 8.44 µM [inhibitor, single point]
COc1ccc(OC)c(NS(=O)(=O)c2ccc(NC(=O)C3COc4ccccc4O3)cc2)c1 (stereo not given) | inconclusive: 15.8 µM [inhibitor, partial curve]
CCc1ccc(NC(=O)CSc2nc3ccsc3c(=O)n2CCC(=O)O)cc1 | inactive
C/C(=N\Nc1cccc(C(=O)O)c1)c1ccc(Cl)s1 | inconclusive: 20 µM [inhibitor, partial curve]
O=C(OCC(F)(F)C(F)F)c1ccccc1C(=O)Oc1ccc(F)cc1F | inconclusive: 1.26 µM [inhibitor, full curve, poor fit]
C#CCOCCOCCOCCNc1nc(N2CCN(C(=O)CCCCCCCCCCNC(=O)[C@H](CCCCN)n3cc(CCO)nn3)CC2)nc(N2CCN(C(=O)CCCCCCCCCCNC(=O)[C@H](CCCCN)n3cc(C[C@@H](C)CC)nn3)CC2)n1 | inconclusive: 37.7 µM [inhibitor, single point]
COc1cccc(Oc2coc3c(CN4CCOCC4)c(O)ccc3c2=O)c1 | inactive
Cc1ccc(C2CC(c3ccccc3)=NN2c2ccccc2)o1 (stereo not given) | inconclusive: 7.94 µM [inhibitor, single point]
CS(=O)(=O)c1ccc(-c2csc(N3CCC(C(N)=O)CC3)n2)cc1 | inactive
CC1CC(C)CN(CCCNC(=O)c2cc3c(=O)[nH]c4ccccc4c3n2C)C1 (stereo not given) | inconclusive: 31.6 µM [inhibitor, single point]
